According to PubChem BioAssay AID662 (National Center for Advancing Translational Sciences (NCATS), 2007):
Some of the results follow. The main result of the screen is listed elsewhere. These columns were measured beside it and carry no call. Compounds called inactive in the main read-out are mostly missing here. The note in brackets gives the kind of curve behind each potency; many fits are weak.

Assay: Cell signaling CRE-BLA (Fsk stim)
Conditions: CHO CRE-bla reporter (cAMP response element driving beta-lactamase), forskolin EC10, beta-lactamase ratio; measured here: 460 nm blue channel
Method in brief: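 Beta-lactamase reporter under a cAMP responsive element in CHO cells; compounds tested in titration series against EC10 NKH 477, 3 h at 37 °C. Read-out: CCF4 FRET ratio 460nm/530nm (excitation 405nm) giving %Activity, fitted to AC50.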

| SMILES | AC50 |
| --- | --- |
| COc1ccc(Cc2nnc(NC(=O)c3ccco3)s2)cc1OC | 12.6 µM [rising, partial curve] |
| CCC(=O)Nc1nc(C)c(C(=O)N2CCCCC2)s1 | 31.6 µM [falling, partial curve] |
| Cc1ccc2[nH]c(=O)c(CN(Cc3cccs3)Cc3nnnn3Cc3ccccc3)cc2c1 | 7.94 µM [falling, partial curve, poor fit] |
| CCCCN(CCCC)C(=O)CCS(=O)(=O)c1ccc2c(c1)n(C)c(=O)c(=O)n2C | 3.98 µM [falling, partial curve] |
| CCOc1cc(C(=O)NCc2nnc(SCC(=O)OC)n2C)cc(OCC)c1OCC | 25.1 µM [rising, single point] |
| COc1ccc(OC)c(N)c1 | 0.1 µM [falling, full curve, poor fit] |
| COc1ccccc1-c1ccc2ncnc(NC3CC3)c2c1 | 5.01 µM [rising, full curve] |
| O=C(O)CCCNc1cc(N2CCC3(CC2)OCCO3)c2noc3c2c1C(=O)c1ccccc1-3 | 10 µM [rising, partial curve] |
| CCOc1ccccc1NC(=O)N1CCCC(c2nc3c(nnn3Cc3ccc(C)cc3)c(=O)[nH]2)C1 (configuration not stated) | 10 µM [rising, partial curve] |
| N#Cc1nc(COc2ccc(Cl)cc2Cl)oc1N1CCOCC1 | 10 µM [rising, partial curve] |
| CCOC(=O)Oc1c(OC)cc(C(=O)O[C@H]2C[C@H]3CN4CCc5c([nH]c6cc(OC)ccc56)[C@@H]4C[C@H]3[C@@H](C(=O)OC)[C@@H]2OC)cc1OC | 10 µM [falling, single point] |
| Cc1c(C(=O)c2no[n+]([O-])c2C(=O)c2cnn(C)c2C)cnn1C | 20 µM [falling, partial curve] |
| COc1ccc2[nH]cc(CCNc3ccnc(-c4ccc(C(=O)N(C)C)cc4)n3)c2c1 | 3.98 µM [rising, full curve] |
| CCSc1ncc(Cl)c(C(=O)Nc2ccc(S(=O)(=O)Nc3onc(C)c3C)cc2)n1 | 12.6 µM [rising, single point] |
| COc1ccc(NC(=O)C2CCCN2C(=O)NC2CCCCC2)cc1OC (configuration not stated) | 0.02 µM [falling, full curve] |
| Cc1nc2cnc(N3CCNCC3)nc2n(Cc2ccc(F)cc2)c1=O | 25.1 µM [rising, single point] |
| CCOC(=O)c1[nH]c2ccc(F)cc2c1NC(=O)c1cc(OC)c(OC)c(OC)c1 | 1.58 µM [rising, full curve] |
| O=c1c(-c2ccc(F)c(F)c2)nc2cncnc2n1-c1ccccc1 | 12.6 µM [rising, partial curve] |
| CCCCCCNC(=O)Cc1nc2nc(C)cc(C)n2n1 | 0.398 µM [rising, single point] |
| O=C(c1ccc(F)cc1)c1ccc(N2CCCC2)cc1 | 12.6 µM [rising, partial curve] |
| CCN(Cc1cc2cc(OC)ccc2[nH]c1=O)C(=O)Cc1ccc(OC)cc1 | 12.6 µM [rising, partial curve] |

At a glance, part of the list above.

| SMILES | AC50 |
| --- | --- |
| O=c1c(-c2ccc(F)c(F)c2)nc2cncnc2n1-c1ccccc1 | 12.6 µM [rising, partial curve] |
| CCCCCCNC(=O)Cc1nc2nc(C)cc(C)n2n1 | 0.398 µM [rising, single point] |

The results go on.

| SMILES | AC50 |
| --- | --- |
| c1ccc(-n2ncc3c2ncn2nc(-c4ccco4)nc32)cc1 | 6.31 µM [rising, partial curve] |
| CCCn1nc(C(=O)N2CC(=O)Nc3ccccc32)c2ccccc2c1=O | 12.6 µM [rising, partial curve] |
| COc1cccc(Cn2c(=O)c(-c3cc(F)cc(F)c3)nc3cnc(N4CCN(C)CC4)nc32)c1 | 3.16 µM [rising, full curve] |
| [O-]/[N+](=C\c1ccccc1)[C@@H]1CCCC[C@@H]1/[N+]([O-])=C/c1ccccc1 | 25.1 µM [rising, single point] |
| Cc1ccc(C)c(-n2nnnc2Sc2nnnn2-c2ccccc2)c1 | 10 µM [falling, partial curve] |
| COc1ccc2[nH]cc(CCNc3nc(-c4ccc(C(=O)N(C)C)cc4)nc4ccccc34)c2c1 | 0.794 µM [rising, full curve] |
| CC1(C)N([O-])C(c2ccccc2)=C[N+](=O)C1(C)C | 5.01 µM [falling, partial curve] |
| COc1ccc2c(c1)c1c(n2C(C)=O)C(OC(C)=O)=NCC1 | 15.8 µM [rising, partial curve] |
| Fc1ccc(Nc2nc(N3CCOCC3)c3ccccc3n2)cc1 | 3.98 µM [falling, single point] |
| COc1cccc(Nc2ncc3ncc(=O)n(CCc4ccccc4)c3n2)c1 | 10 µM [rising, partial curve] |
| FC(F)(F)c1ccccc1-c1nccc(NCCN2CCOCC2)n1 | 2.51 µM [rising, full curve] |
| Nc1nonc1-c1nc2ccccc2n1CC(=O)NC1CCCC1 | 0.126 µM [falling, partial curve, poor fit] |
| O=C1CCCN1CCCn1cnc2c([nH]c3ccc(F)cc32)c1=O | 10 µM [rising, partial curve] |
| O=C(CSc1nnc(Cc2cc(=O)[nH]c(=O)[nH]2)n1-c1ccccc1)N1CCCc2ccccc21 | 1.58 µM [falling, partial curve] |
| O=C(CCSc1nnc2scc(-c3ccccc3)n12)NCc1ccc2c(c1)OCO2 | 10 µM [rising, partial curve] |
| CCOC(=O)C1CCN(CC(=O)Nc2c(C(=O)OC)[nH]c3cccc(Cl)c23)CC1 | 12.6 µM [falling, partial curve, poor fit] |
| O=C(O)COc1nsnc1N1CCOCC1 | 25.1 µM [falling, single point] |
| COc1ccc(CCN2C(=O)c3[nH]nc(-c4ccccc4O)c3C2c2ccccc2)cc1OC (configuration not stated) | 10 µM [rising, single point] |
| CCOC(=O)CC1(C)NC(=O)c2c(C)sc(C(=O)OCC)c2N1 (configuration not stated) | 15.8 µM [rising, partial curve] |
| COCCn1c(-c2ccc(OC)c(OC)c2)nc2ccccc21 | 15.8 µM [rising, single point] |
| O=C(Cn1cnc2c(cnn2-c2ccc(F)cc2)c1=O)NCC1CCCO1 (configuration not stated) | 0.0316 µM [rising, full curve] |
